Out of some 53,000 sequences screened, about 3,700 (7%) were called active.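 Rule for the calls: active = gene knockdowns whose robust z-score for IL-1 alpha signal is at least 2 or at most -2, so actives lie on both sides; inactive = the rest.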 The list shows a part of the results.

The nature of the test: Components of the Cytosolic LPS Sensing Pathway: Gene Identification via Genome-wide siRNA Screen.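 Note: robust z of the log signal after scaling to non-targeting control siRNA wells of the plate.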 Conditions: RAW264.7 macrophages, IL-1a HTRF, actives lie on both sides, screened at 100 nM (by protocol), cells primed 5 h with Pam3CSK4 first. In a few lines:
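IL-1a HTRF of supernatants after 24 hour LipidA transfection of Pam3CSK4-primed (5 hours) RAW264.7 cells, 48h post-siRNA transfection (100 nM). Scores: percent of plate negative-control median, then log-based robust z-score.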
A general note: Time-resolved FRET reads energy transfer from a long-lived donor to a nearby acceptor.
In the case of CGACCAUUGUGACUGGAGATT against Olfr782, the z-score is inactive: 0.2. With GCUUUUGAAGCGACUGGGATT against Frk the figure was inactive: -0.0967; with CCGUGGACAUGAAAACACCTT against Ly6g6e, inactive: 0.713; with GCUUCAAUGAGGAGUAUCUTT against Smpdl3b, inactive: -0.617. With GGUUUCAAUAAUCCAGGAATT against Naa16 the figure was inactive: 0.352. To GGAAUUUUGGAAUCACUAGTT against Ssr1 belongs inactive: -0.699. With GGACAAAUUUGCAUAGAUUTT against Rab10os, the z-score is active: 2.93. With GGUCUAUCAGUGCAUCGUGTT against BC052040 the figure was inactive: 0.0181.

With CCGUAAGUCUCGGAUCUCCTT against Plcxd1, the z-score is inactive: 0.373. To GCCUUUCCUACUAUGAAUATT against Bmx belongs inactive: 0.748; to GGGAUCAUAGACGAUAUUUTT against Fnbp4, inactive: -1.59; to GGCUUCAUGCUGGUCCUUGTT against Pim2, inactive: -1.62. With GGUGAAGACCUUUGUCUCCTT against Matn3 the figure was inactive: -0.122. GGCUGACCACCAAAUUGUUTT against Krtap1-5: the z-score was inactive: -0.583. To GGGUAAUUUUGAUAUUGUCTT against Dpm1 belongs inactive: -1.1; to GGCAACUCUAUAGAAGAAATT against Trim65, inactive: -0.831. Take CCCAACUUCAUUUGUGUAUTT against Itga4: the z-score is inactive: -0.406. Take GCUGGAUCUAGGUACCAAGTT against Slx1b: the z-score was inactive: -0.313. To GCAGGUGAAACAAUCGCCUTT against Ctnnal1 belongs inactive: -1.01. With CGGCAAGUUUAAGAAGGACTT against Uqcr11 the figure was inactive: -0.848. To CCAAGGGUUGUUAAGUAUUTT against Cdh26 belongs inactive: 1.08. For the sequence CCAAGAUUCGGUUUUGCUUTT against Trerf1, the z-score was inactive: -0.33.

With GGUUGUGAGUGAGAACACUTT against Prss35, the z-score was inactive: 0.738. To GGGAGCCACUCUGAAGAUCTT against Pkm belongs inactive: -0.744. To GGAACAAGAACAAAAAGCATT against Cwc15 belongs inactive: -1.47; to “CUUCCAGUGUAGACUUAUGTT against 9430025C20Rik”, inactive: 1.61.

Turning to CCAGUAUGUCUGUAAGUGATT against Wnt5b, the z-score is inactive: -0.126. Turning to GGAGAUGCAGGUCUUCUUGTT against Adipoq, the z-score is inactive: 0.326.

As for GUGAUGCGCAUUUCGAGUCTT against Sf3b5, the z-score was inactive: -0.335. With GCCAAUCCCUAUGAGAUGATT against Cmtr1 the figure was inactive: 0.44; with GCCAUUGAUUGAACUCUCCTT against Pip5k1a, inactive: -0.381; with GCAAGGAAGGAUAUUACACTT against Mmp24, inactive: 1.34.

Consider GAAGCCUGGAAGGAAAACUTT against Smim11, for which the z-score was inactive: 0.971. For GGAAAAGGCAAUCGUUUCUTT against Mtg2, the z-score was inactive: 0.278. With GGUGAAAAAAGGAAGCAAATT against Senp6 the figure was inactive: 1.15; with GGAGAUCUCCUCAGCCACATT against Gemin4, active: -2.14; with GCUGGGUGAAUAAUGUUAATT against Sytl2, inactive: 0.774. Take GGCUAACCGUGGCUUCAUCTT against Lamc1: the z-score is inactive: -1.65. Regarding GCGUUUGUGAAGCAUAUCATT against Myl3, the z-score was inactive: -0.276. With GCAGAGGGUUUUCCAAGCGTT against Ddx4 the figure was inactive: -0.631. Take GGCUGUUAAUGCAAAAAAATT against Ern2: the z-score is inactive: -0.0576. Regarding GGUUCUUCCAAAUGAUCCATT against Ccnh, the z-score was inactive: -0.505. Regarding GGACAUCGAUCCCUUUGACTT against Tsr3, the z-score is inactive: -1.13. Take CCCUCUUGACACGUUCAAGTT against Serpina3n: the z-score is inactive: 1.09.

With GGGAUGAAGUUUGAGGACGTT against Mrps11, the z-score was inactive: -0.436. With GGUAUUCAUUCUUUCAGUCTT against Hoxa1, the z-score was inactive: 1.04. To UGGUUGUGAUCAACAGAAUTT against Cyp2d12 belongs inactive: -0.933; to GGAAAGGAGUCUGCCAGCUTT against Tef, inactive: -1.29. With GCAUGCCUCUCUCAAGUCUTT against Olfr849 the figure was inactive: -1.32; with GGAGUACAUAGCUAAUGUGTT against Lemd2, inactive: -1.12. With CGGGAAUAAGAUCUUUCUGTT against Zbtb22 the figure was inactive: 1.43.

Regarding GGAAGCCUAUGAACUUAAUTT against Zfp180, the z-score was inactive: 0.537.

On to GCUCUCGUGAGAGUUGCCATT against Kash5, for which the z-score is inactive: 0.483. With GGGAAUUGCUCAAAGUAAATT against Nqo1, the z-score is inactive: -0.13. To GGUAUUUGAAUUUCGUCCCTT against Zc3h15 belongs inactive: 0.122; to GGAAUUCUUCUACUUUCAATT against Tpd52l1, inactive: -1.93. On to GUAGUAAUAUCAUGGGCCUTT against Olfr339, for which the z-score is inactive: 0.0838.

In the case of GGAGUUCCAGCAGCUCUAUTT against Vsnl1, the z-score was inactive: 0.741. To GGAAGAGGCUGAGAAGCUATT against Pabpn1 belongs inactive: -1.69; to GAUUAGCAUCCAUGAACACTT against Tcl1b2, active: 2.16; to GGAAAAGAUCUGUUUCUCATT against Cdhr5, inactive: -0.204.

Turning to GGAAAAUAGGGCGACAAAUTT against Tdrd7, the z-score was inactive: 0.673. For ACGGUACUCAGUGCAAGCATT against Scarf1, the z-score is inactive: 1.69. Regarding GGUGACAAGCGGAUCUUUCTT against Kcne1, the z-score was inactive: 0.291. As to GCCACUUAACCUUCAAAAGTT against Gtsf2, the z-score is inactive: -0.402. With GGCAGAAGGCAAAGAAAGGTT against Cyp3a11 the figure was inactive: -0.58; with GGAAGGAAGUCUCAACUCGTT against Lhx5, inactive: -0.945. To CAUACCUCCACUACUCAAGTT against Olfr1113 belongs inactive: -0.575. To GAUGGACCAGUACAGAAUUTT against Aph1b belongs inactive: 1.41; to “GGUCUUCAAUUUCUUCAAATT against 4930430F08Rik”, inactive: 0.928. Take GGAUCAAAUGAAGAGGGAATT against Skor1: the z-score was inactive: -1.54. With GCCUAAUGUCAACAUGAAGTT against Elp4 the figure was inactive: -1.16. To GGGUAACUGGAUAGGAGAATT against Pi15 belongs inactive: 0.089. For GGGAGUUUGGCAACUACCUTT against Fkbp6, the z-score was inactive: -0.668. To GGUGCUCAUGCAGGUCCAUTT against Slc25a25 belongs inactive: -0.356; to GCGUGACACUAACAAAAAGTT against Arhgef37, inactive: -1.33; to GCGCGUCUAAAGCCGUAAATT against H1f2, inactive: 0.219. As for GGGACUGUGUGUAAAGGACTT against Tmem134, the z-score was inactive: -1.21. To GGGACAGGUGCCAUUGACATT against Tut7 belongs inactive: 0.395; to GGCUUCCUUUUUGAAGCUATT against Slc35b4, inactive: 0.258. Regarding GGAAAUCACCAUGCCCUCUTT against S100a8, the z-score is inactive: -0.0382. To GGAUAUCGUCUGCUACCUGTT against Dgkb belongs inactive: 0.945; to GGCCAAAUGGACAAUCCAUTT against Dnah2, inactive: 1.29. With GGAUCUAAGCCUGUUGUGATT against Zfp647 the figure was inactive: -0.82; with GGAUAAAGAGUUUUACAGATT against Srgn, inactive: -0.99; with GGAUUCAAUAUCAAUUGGATT against Htr2c, inactive: 0.432. Consider GGUACACAAUCUCCAAUGCTT against Rpp30, for which the z-score was inactive: -0.586. As to GGCUAUGCUGAUCUGAAGATT against Ccdc126, the z-score is inactive: 1.67. With GGCUUUCGGCAGCAUCUUGTT against Tk1 the figure was inactive: -1.15; with GGACAAGAUGAACUUUUCCTT against Pomp, active: -2.85. To GGAUAUCAUGGACACUCAUTT against Atg16l1 belongs inactive: 0.269. With GCAAGUCCACCAGACAACATT against Prl3b1 the figure was inactive: -0.215. As for GCGGAGAAUGGAAAAACUUTT against Enpep, the z-score is inactive: 1.05. With GGAGAACAAGGCAUUCCUGTT against Col10a1 the figure was inactive: -1.08; with GGACGUACACAUUUACAAATT against Mettl21a, inactive: 0.000322.

On to GGUGGACUUAUAUGGUUUUTT against St3gal1, for which the z-score was inactive: 0.408. With GCAGAUCUUGUGAUUAAUGTT against Ildr1 the figure was inactive: 0.882; with GGAGUAAGACGGAAACGAGTT against Map3k1, inactive: -0.662.

Consider GGAAAAGGUGGAAGGCGGATT against Madd, for which the z-score is inactive: -0.196. With GGUUGUUUGGAUUUUCUUCTT against Tars the figure was inactive: 1.46. CCGAUACAGGGACAGUCAUTT against Mrpl38: the z-score is inactive: -1.71. Consider CCUUAAACUUGGCCGAGGUTT against Trmt112, for which the z-score was inactive: 0.748.

Turning to CGUAUCAAGAAGUGCUGUGTT against Kcnk9, the z-score was inactive: -1.71. As for GCCACCAAUGUGCUUACAUTT against Cfhr2, the z-score is inactive: 0.69. With GCUGGAGUUUCAGUCAAGGTT against Ctso, the z-score was inactive: -0.355. Take GUGGAAGACUUCACCGGACTT against Arxes1: the z-score is active: 2.01. To GGAACACAGUUAAGUGGAUTT against Vmn1r202 belongs inactive: 0.733.

(Values after PubChem BioAssay AID1508600 (Functional Genomics Laboratory (NCATS/FGL), 2020).)
